This note sets out measurements from publication doi:10.1101/133777.

By UniProt entry, the sequences of proteins in these tests, tags left out.
UniProt O95747: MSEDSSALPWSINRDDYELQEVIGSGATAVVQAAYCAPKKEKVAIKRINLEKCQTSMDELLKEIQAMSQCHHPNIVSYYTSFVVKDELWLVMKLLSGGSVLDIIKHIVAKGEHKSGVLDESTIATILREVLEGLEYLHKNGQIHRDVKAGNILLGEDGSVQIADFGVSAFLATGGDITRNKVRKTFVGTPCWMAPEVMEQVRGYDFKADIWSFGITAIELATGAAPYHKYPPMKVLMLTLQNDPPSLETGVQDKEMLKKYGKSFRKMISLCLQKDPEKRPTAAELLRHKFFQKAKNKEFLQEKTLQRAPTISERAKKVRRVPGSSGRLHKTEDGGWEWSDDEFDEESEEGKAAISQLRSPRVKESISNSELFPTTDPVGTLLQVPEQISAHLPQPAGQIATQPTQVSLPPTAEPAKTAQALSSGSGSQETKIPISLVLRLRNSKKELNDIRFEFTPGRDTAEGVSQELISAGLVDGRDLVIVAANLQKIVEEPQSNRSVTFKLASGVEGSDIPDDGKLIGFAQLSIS
UniProt Q9H4A3: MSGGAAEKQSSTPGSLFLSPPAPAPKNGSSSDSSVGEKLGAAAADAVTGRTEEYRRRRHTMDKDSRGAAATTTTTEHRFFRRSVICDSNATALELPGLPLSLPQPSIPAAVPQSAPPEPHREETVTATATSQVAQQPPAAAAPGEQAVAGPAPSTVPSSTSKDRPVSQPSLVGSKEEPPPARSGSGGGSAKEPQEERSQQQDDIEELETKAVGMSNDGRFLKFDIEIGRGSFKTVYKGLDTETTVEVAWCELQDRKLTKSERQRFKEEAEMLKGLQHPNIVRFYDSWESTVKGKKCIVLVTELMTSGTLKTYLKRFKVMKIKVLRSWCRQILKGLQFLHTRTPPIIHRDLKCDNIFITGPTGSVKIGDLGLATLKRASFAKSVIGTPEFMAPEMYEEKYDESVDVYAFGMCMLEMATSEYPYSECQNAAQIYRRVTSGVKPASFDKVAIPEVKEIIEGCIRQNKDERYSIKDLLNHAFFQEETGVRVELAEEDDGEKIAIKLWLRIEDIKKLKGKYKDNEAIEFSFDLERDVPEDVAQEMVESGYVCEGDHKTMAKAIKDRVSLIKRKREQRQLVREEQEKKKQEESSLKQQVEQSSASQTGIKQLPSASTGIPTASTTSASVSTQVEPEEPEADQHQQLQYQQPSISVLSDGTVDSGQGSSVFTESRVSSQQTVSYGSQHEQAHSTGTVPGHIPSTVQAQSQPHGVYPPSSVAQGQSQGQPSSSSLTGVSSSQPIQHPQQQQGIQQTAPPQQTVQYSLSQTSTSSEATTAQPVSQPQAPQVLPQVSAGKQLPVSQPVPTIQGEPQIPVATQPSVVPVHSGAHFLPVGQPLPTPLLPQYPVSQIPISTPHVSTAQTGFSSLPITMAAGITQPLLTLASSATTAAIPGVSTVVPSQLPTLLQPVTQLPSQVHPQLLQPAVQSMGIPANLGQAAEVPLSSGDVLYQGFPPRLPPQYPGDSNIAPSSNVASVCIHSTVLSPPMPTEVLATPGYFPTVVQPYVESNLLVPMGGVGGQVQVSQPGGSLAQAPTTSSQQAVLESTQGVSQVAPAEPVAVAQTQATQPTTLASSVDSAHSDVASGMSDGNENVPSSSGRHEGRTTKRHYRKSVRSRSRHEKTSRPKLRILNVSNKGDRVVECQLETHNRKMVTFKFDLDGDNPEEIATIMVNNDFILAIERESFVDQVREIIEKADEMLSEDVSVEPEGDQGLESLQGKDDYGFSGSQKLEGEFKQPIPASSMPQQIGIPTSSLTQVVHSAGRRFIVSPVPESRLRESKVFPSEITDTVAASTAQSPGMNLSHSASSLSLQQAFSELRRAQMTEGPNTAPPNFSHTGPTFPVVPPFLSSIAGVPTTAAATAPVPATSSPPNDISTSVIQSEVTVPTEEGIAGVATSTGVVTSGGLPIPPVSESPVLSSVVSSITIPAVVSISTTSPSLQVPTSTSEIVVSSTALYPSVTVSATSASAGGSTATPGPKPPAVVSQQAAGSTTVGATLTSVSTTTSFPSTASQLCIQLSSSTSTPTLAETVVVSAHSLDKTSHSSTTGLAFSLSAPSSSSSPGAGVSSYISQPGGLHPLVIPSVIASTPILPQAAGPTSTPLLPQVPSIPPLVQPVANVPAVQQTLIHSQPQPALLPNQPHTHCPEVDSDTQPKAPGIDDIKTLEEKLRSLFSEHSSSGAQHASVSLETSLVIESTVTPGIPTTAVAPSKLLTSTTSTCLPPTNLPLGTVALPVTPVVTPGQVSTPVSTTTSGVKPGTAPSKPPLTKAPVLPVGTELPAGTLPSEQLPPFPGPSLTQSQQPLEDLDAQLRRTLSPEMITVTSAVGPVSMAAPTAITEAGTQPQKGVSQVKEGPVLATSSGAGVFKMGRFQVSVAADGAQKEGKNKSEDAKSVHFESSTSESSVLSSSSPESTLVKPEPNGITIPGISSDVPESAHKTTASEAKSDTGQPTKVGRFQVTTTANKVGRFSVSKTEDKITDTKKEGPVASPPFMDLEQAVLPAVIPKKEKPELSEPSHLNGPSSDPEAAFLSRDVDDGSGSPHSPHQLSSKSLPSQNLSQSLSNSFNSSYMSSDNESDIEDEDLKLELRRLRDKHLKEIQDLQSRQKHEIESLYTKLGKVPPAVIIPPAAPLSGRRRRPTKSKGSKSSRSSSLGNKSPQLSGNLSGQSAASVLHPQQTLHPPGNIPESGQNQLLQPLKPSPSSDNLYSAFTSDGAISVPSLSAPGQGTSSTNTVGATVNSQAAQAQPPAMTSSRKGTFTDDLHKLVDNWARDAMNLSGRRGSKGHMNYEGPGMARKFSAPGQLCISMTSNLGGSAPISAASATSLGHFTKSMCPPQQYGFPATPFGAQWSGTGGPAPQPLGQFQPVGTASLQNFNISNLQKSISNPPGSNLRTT

For the test, the target named is T1, His6-3xFLAG-FBXL5-ΔFbox (UniProt Q9UKA1).
T1 sequence: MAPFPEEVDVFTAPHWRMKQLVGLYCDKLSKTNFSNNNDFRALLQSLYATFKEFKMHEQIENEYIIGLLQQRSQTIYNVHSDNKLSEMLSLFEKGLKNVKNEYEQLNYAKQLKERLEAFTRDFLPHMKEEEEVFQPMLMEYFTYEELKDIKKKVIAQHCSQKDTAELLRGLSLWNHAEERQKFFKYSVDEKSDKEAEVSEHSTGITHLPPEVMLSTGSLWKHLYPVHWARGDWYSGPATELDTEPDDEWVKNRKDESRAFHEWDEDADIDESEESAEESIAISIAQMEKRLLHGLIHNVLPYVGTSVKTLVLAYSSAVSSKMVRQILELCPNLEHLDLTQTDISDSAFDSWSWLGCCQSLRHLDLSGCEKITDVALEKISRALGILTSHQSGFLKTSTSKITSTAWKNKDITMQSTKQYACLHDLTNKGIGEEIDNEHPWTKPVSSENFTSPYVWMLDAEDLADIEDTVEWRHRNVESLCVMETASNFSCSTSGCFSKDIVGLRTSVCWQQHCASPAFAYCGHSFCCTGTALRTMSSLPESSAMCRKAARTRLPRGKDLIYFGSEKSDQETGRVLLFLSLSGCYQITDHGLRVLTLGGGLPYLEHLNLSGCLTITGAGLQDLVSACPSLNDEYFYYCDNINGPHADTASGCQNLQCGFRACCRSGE
The experiment in a line: affinity purification with mass spectrometry.

No constants are given. Whether binding was seen depends on the method and setting. In cells and extracts the contact can be indirect. Here binding means that the protein was enriched with, or labelled near, the bait; the list need not be complete. Where a sequence is shown, tags or fusion partners need not be part of it.

As for “Oxidative Stress-Responsive 1 protein (OSR1), endogenous (from UniProt O95747 1-527)”, the binding result is reported as “binds”. Take “WNK1, endogenous (from UniProt Q9H4A3 1-2382)”: the binding entry is “binds”.
